PubChem BioAssay AID1224827 – NIAID, 2016
Screen: 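Retest primary hits on a TNF reporter with six siRNAs per gene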 (follow-up of hits). System: RAW264.7 G9 mouse macrophage reporter clone. Knock-down reagent: single siRNA against mouse genes, 100 nM siRNA. Timing: siRNA for 2 days, then LPS about 16 h. Conditions: bacterial lipopolysaccharide (LPS), 10 ng/ml, cells fixed after overnight (about 16 h) stimulation. Read-out: 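TNF promoter reporter red fluorescence in nuclei, background subtracted, normalised per plate and to non-targeting control siRNA, as z-scores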. Direction: TNF reporter z-score, mean: higher = stronger Tnf promoter reporter signal. Rule for the call: 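Active siRNA: replicate-mean z-score of 2 or more, or -2 or less; no calls for control wells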.
Shown is an unselected part of about 3,800 deposited reagents. About 2,200 of all reagents (57%) count as active. 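Active means a strong reporter change in either direction; calls are per siRNA, not per gene; qiagen siRNAs gave weaker effects.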 Unmarked entries are inactive. Reagents against one gene are numbered here. Further read-outs or replicates are left out here.

For Tigar #1 the deposit lists TNF reporter z-score, mean 1.02.
Knock-down of Tigar #2 came out at: TNF reporter z-score, mean -3.53 (active).
After knock-down of Tigar #3 the results were TNF reporter z-score, mean -3.81 (active).
After knock-down of Tigar #4, the record shows TNF reporter z-score, mean 2.93 (active).
Depletion of Tigar #5 resulted in: TNF reporter z-score, mean 1.6.
With knock-down of Tigar #6 the results were TNF reporter z-score, mean 0.956.
Against Vmp1 #1 the deposit lists TNF reporter z-score, mean 6.05 (active).
Against Vmp1 #2 the deposit lists TNF reporter z-score, mean -1.18.
Vmp1 #3 scored TNF reporter z-score, mean -1.5.
Vmp1 #4 gave TNF reporter z-score, mean -1.15.
For Vmp1 #5 the deposit lists TNF reporter z-score, mean -2.19 (active).
Vmp1 #6 showed TNF reporter z-score, mean -2.43 (active).
For Nab1 #1, the entry reads TNF reporter z-score, mean -0.406.
Against Nab1 #2, the values are TNF reporter z-score, mean -1.66.
Depletion of Nab1 #3 came out at: TNF reporter z-score, mean -2.87 (active).
After knock-down of Nab1 #4 the results were TNF reporter z-score, mean -0.757.
Against Nab1 #5, the values are TNF reporter z-score, mean -1.75.
Knock-down of Nab1 #6 gave: TNF reporter z-score, mean -1.46.

A stretch taken from the entries so far:
Tigar #5: TNF reporter z-score, mean = 1.6
Tigar #6: TNF reporter z-score, mean = 0.956
Vmp1 #1: TNF reporter z-score, mean = 6.05 (active)
Vmp1 #2: TNF reporter z-score, mean = -1.18
Vmp1 #3: TNF reporter z-score, mean = -1.5

The results go on.
Fam168b #1 gave TNF reporter z-score, mean -4.26 (active).
Fam168b #2 gave TNF reporter z-score, mean -4.64 (active).
Fam168b #3 gave TNF reporter z-score, mean -6.37 (active).
Brd8 #1 showed TNF reporter z-score, mean -0.511.
Brd8 #2 gave TNF reporter z-score, mean -1.37.
Brd8 #3 showed TNF reporter z-score, mean -3.69 (active).
Knock-down of Brd8 #4 resulted in: TNF reporter z-score, mean 1.39.
Brd8 #5 scored TNF reporter z-score, mean 1.17.
Brd8 #6 gave TNF reporter z-score, mean -0.574.
Silencing of Ube2e2 #1 gave: TNF reporter z-score, mean 3.98 (active).
Depletion of Ube2e2 #2 gave: TNF reporter z-score, mean -2.45 (active).
With knock-down of Ube2e2 #3 the results were TNF reporter z-score, mean -4.43 (active).
Ube2e2 #4 scored TNF reporter z-score, mean 1.42.
Depletion of Ube2e2 #5 came out at: TNF reporter z-score, mean 0.838.
Silencing of Ube2e2 #6 came out at: TNF reporter z-score, mean 0.225.
With knock-down of 6030452D12Rik #1 the results were TNF reporter z-score, mean 1.58.
Knock-down of 6030452D12Rik #2 gave: TNF reporter z-score, mean -3.19 (active).
For 6030452D12Rik #3, the entry reads TNF reporter z-score, mean -3.83 (active).
For 6030452D12Rik #4 the deposit lists TNF reporter z-score, mean 3.01 (active).
6030452D12Rik #5 showed TNF reporter z-score, mean 0.516.
Against 6030452D12Rik #6 the deposit lists TNF reporter z-score, mean -1.4.
For Chd4 #1 the deposit lists TNF reporter z-score, mean 0.295.
With knock-down of Chd4 #2, the record shows TNF reporter z-score, mean -2.46 (active).
For Chd4 #3 the deposit lists TNF reporter z-score, mean -4.83 (active).
After knock-down of Chd4 #4, the screen gave TNF reporter z-score, mean -1.7.
Chd4 #5 gave TNF reporter z-score, mean -1.98.
Silencing of Chd4 #6 resulted in: TNF reporter z-score, mean -2.99 (active).
